Test results taken from article PMC7226387.
The exact form of at least one protein or probe is not confirmed. At least one result comes from cells or an extract, where the contact may be indirect. No signal at the amounts used counts as a negative.

Amino acid sequences for entries named in this document (tags omitted). Residues count along the entry.
UniProt P28908, 19-595: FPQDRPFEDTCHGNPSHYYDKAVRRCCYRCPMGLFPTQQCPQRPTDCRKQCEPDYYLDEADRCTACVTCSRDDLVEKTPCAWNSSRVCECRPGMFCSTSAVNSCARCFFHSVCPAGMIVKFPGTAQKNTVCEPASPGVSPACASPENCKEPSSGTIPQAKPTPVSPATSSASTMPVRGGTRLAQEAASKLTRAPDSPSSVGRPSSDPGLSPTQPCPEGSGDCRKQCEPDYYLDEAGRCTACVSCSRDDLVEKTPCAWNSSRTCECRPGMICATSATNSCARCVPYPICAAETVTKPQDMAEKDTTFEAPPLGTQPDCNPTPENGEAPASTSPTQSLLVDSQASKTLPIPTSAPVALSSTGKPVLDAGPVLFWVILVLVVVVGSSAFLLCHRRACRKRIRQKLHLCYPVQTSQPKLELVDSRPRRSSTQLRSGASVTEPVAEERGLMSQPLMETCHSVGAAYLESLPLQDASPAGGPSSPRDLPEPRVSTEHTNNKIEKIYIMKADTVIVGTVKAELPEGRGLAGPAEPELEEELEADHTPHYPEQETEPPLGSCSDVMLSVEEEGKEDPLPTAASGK

Target: CD30 (cell-surface, Karpas 299 cells) (human) (UniProt P28908)
Assay: flow cytometry
Settings: 50 nM dsDNA alone, 20 min, Cell binding in 100 µL PBS, 50 nM oligonucleotide, 2x10^5 cells, PBS wash, pH and temperature not stated, protein on the cell surface, label: Cy5

Sequence: CGCGCGCGCGCGCGCGCGCG (double strand) [CG-repeat dsDNA (Dox carrier)]
- binding result: no binding
